For at least one compound, name, drawing or mass did not settle the structure.
Test system: insulin resistant 3T3-L1 adipocytes
Assay: Triglyceride (lipid) incorporation in insulin resistant 3T3-L1 adipocytes (Examples 3 and 4)
Format: cell-based, murine
Conditions: Example 4; pioglitazone 5.0-0.635 μg/mL, cinnamon samples 100-12 μg/mL; present-tense example

With `CCc1ccc(CCOc2ccc(CC3SC(=O)NC3=O)cc2)nc1` (stereo not shown) [Pioglitazone] the “lipid incorporation in the insulin-resistant 3T3-L1 adipocyte” value was “dose-related increases”.

Source: US20060286182A1, “Synergistic cinnamon combinations and methods for enhancing insulin activity” (Abeille Pharmaceuticals, Inc., priority 2005, published 2006)
